Source: PubChem BioAssay AID540256 (National Center for Advancing Translational Sciences (NCATS), 2011)
The campaign covered roughly 300,000 compounds. About 3,700 (1.2%) were called active. The inconclusive results got no clear call from the source; some entries with a clear call stand among them for comparison. The call rests on the fitted dose curve; tested in HEK293 cells. Potencies of inconclusive entries are doubtful fits and often do not repeat.

test: qHTS for Inhibitors of binding or entry into cells for Lassa Virus; conditions: Lassa virus pseudotype entry inhibition, cell reporter; activity change, negative = inhibition: at 37.9 µM (top of the series) unless noted; further: nearly all actives have a fitted effect of over 50% in size
On the % scale 0 is the no-effect control and ±100 the full control effect; potency means the concentration at half of the fitted maximal effect.

**Q.** Which Potency does the source give for Cc1ccc(C)c(NS(=O)(=O)c2ccc3c4c(cccc24)C(=O)N3)c1 here?
**A.** inconclusive: 35.5 µM [inhibitor, single point]

**Q.** For CC(CC(=O)Nc1ccc2c(c1)OCO2)c1ccccc1 (centres undefined), which “activity change, negative = inhibition” value is on record?
**A.** inactive: -3.95% [at 46.1 µM]

**Q.** With CC(=O)NCC(=O)NNC1CC(=O)N(c2cccc(Cl)c2)C1=O (centres undefined) as the molecule, how does the Potency read?
**A.** inconclusive: 5.62 µM [activator, single point]

**Q.** With Cc1ccc(-n2ncc(C(=O)NC3CCCC3)c2C2CCN(C(=O)OC(C)(C)C)CC2)c(C)c1 as the molecule, how does the Potency read?
**A.** inconclusive: 1.26 µM [inhibitor, full curve]

**Q.** For O=C(CSc1nnc(CNC(=O)c2c(F)cccc2Cl)o1)Nc1ccccc1F, which “activity change, negative = inhibition” value is on record?
**A.** inactive: 8.82% [at 46.1 µM]

**Q.** For CCC(=O)N1c2ccccc2CC1C(=O)NCc1ccccc1C (centres undefined), which “activity change, negative = inhibition” value is on record?
**A.** inactive: -4.85% [at 46.1 µM]

**Q.** For O=[N+]([O-])c1nn(-c2ccccc2)[n+]([O-])c1N1CCN(c2ccccc2F)CC1, which “activity change, negative = inhibition” value is on record?
**A.** inactive: 13.3%

**Q.** With Cc1cccc(NC(=O)C2CCN(S(=O)(=O)c3c(C)c(C)cc(C)c3C)CC2)n1 as the molecule, how does the Potency read?
**A.** inconclusive: 11.2 µM [inhibitor, partial curve, poor fit]

**Q.** Which activity change, negative = inhibition does the source give for COc1ccccc1-c1c(C)nn2c(N3CCN(c4cccc(Cl)c4)CC3)cc(C)nc12 here?
**A.** inconclusive: 7.01% [activator] [at 46.1 µM]

**Q.** Which Potency does the source give for CCc1ccc(NC(=O)COc2ccc(/C=C(/C#N)c3nc4ccccc4[nH]3)cc2OC)cc1 here?
**A.** inconclusive: 6.31 µM [inhibitor, single point]

**Q.** For COc1cc(C(O)CO)ccc1O (centres undefined), which “activity change, negative = inhibition” value is on record?
**A.** inactive: 19.1%

**Q.** Which Potency does the source give for O=C(NN=C1CCCC1)NC1CCCCC1 here?
**A.** inconclusive: 0.282 µM [inhibitor, full curve, poor fit]

**Q.** For Cn1c(/C(C#N)=C(\O)c2cccc(F)c2)nc2ccccc21, which Potency is on record?
**A.** inconclusive: 1 µM [activator, full curve]

**Q.** Which Potency does the source give for FC(F)(F)c1ccccc1NC(=S)N/N=C1\CC2CC=CC12 (centres undefined) here?
**A.** inconclusive: 35.5 µM [inhibitor, single point]

**Q.** For CCOc1cccc2sc(Nc3nc4ccc(NC(C)=O)cc4s3)nc12, which Potency is on record?
**A.** inconclusive: 12.6 µM [inhibitor, single point]

**Q.** Which Potency does the source give for COc1ccc(NC(=O)Nc2cccc3cccnc23)cc1 here?
**A.** inconclusive: 29.1 µM [inhibitor, single point]

**Q.** With Fc1ccc(CN2CCN3CCCC3C2C2CCCCC2)cc1F (centres undefined) as the molecule, how does the Potency read?
**A.** active: 12.6 µM

**Q.** With CCOc1cc(/C=C2/C(=O)ON=C2C)ccc1OCc1ccccc1F as the molecule, how does the Potency read?
**A.** inconclusive: 29.1 µM [inhibitor, single point]

**Q.** With COc1ccc(C2=NS(=O)(=O)N(C)C(C(=O)Nc3cc(OC)c(OC)c(OC)c3)=C2)cc1 as the molecule, how does the Potency read?
**A.** inconclusive: 10 µM [inhibitor, partial curve, poor fit]
